{"sequences": {"note": "Sequences of proteins named here, by UniProt entry; tags and fusion partners are left off. A change or cut given only in a name is not applied to a line headed by its entry.", "UniProt P42597": "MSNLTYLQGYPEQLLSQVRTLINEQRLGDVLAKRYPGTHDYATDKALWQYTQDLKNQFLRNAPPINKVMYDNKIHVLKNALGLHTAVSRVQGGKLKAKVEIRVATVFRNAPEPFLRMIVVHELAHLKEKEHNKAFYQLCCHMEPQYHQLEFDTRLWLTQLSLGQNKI", "UniProt P37440": "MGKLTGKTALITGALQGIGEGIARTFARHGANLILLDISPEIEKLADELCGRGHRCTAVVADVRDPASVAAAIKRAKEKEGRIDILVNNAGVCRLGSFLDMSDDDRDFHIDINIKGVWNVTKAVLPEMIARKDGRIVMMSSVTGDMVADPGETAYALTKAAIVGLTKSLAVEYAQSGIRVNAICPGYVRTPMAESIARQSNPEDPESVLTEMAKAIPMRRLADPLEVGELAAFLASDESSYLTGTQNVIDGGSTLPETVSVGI", "UniProt P38051": "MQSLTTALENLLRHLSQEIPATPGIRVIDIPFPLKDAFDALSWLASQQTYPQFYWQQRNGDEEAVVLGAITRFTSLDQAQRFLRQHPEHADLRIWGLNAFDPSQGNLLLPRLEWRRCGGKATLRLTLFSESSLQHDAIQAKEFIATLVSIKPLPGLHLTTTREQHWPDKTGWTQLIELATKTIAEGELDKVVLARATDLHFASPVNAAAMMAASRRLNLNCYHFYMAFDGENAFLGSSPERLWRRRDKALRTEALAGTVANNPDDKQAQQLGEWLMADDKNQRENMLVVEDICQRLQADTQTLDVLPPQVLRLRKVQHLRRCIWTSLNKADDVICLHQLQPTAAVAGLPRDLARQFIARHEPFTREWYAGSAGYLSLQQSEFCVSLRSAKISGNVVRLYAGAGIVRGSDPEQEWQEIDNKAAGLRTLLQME", "UniProt P37008": "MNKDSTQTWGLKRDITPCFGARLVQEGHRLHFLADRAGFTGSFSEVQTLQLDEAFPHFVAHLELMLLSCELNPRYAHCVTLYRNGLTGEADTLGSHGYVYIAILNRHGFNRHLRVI", "UniProt P38105": "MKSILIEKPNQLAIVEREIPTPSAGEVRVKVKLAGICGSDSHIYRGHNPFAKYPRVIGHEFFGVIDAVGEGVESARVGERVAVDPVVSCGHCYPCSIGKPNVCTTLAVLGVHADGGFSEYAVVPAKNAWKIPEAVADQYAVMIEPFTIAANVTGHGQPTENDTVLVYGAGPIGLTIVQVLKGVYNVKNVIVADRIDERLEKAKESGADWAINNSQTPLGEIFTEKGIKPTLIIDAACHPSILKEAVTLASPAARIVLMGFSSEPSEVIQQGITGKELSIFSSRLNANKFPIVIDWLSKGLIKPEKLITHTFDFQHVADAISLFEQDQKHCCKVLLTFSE", "UniProt P37679": "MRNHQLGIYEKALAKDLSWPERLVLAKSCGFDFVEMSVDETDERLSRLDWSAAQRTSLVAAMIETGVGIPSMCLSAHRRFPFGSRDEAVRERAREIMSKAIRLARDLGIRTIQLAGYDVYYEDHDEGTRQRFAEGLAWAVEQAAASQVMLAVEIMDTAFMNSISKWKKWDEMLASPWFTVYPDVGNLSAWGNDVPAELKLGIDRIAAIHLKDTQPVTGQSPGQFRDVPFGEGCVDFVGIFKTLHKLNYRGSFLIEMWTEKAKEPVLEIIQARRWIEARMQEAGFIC", "UniProt P39838": "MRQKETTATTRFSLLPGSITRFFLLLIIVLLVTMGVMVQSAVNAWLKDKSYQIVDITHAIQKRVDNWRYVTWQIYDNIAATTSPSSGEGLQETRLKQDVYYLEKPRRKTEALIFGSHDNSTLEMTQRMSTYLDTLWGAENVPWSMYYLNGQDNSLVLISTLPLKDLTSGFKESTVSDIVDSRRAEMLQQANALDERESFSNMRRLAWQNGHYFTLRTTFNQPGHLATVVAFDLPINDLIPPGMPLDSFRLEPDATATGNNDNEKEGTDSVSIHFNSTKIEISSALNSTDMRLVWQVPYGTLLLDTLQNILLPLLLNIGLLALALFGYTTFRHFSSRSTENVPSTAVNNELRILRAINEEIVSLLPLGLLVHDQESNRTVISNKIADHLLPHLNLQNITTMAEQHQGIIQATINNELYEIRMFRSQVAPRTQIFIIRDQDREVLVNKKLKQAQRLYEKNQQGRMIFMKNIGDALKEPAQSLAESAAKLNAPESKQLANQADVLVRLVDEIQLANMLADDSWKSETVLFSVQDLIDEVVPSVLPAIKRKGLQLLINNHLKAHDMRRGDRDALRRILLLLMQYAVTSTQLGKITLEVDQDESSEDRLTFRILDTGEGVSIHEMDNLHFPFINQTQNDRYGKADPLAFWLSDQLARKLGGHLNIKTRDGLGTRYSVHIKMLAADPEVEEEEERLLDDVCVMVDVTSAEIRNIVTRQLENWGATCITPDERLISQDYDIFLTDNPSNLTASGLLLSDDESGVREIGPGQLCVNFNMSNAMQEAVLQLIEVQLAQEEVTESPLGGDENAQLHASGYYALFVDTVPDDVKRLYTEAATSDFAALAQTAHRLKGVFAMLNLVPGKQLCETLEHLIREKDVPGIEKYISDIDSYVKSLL", "UniProt P37009": "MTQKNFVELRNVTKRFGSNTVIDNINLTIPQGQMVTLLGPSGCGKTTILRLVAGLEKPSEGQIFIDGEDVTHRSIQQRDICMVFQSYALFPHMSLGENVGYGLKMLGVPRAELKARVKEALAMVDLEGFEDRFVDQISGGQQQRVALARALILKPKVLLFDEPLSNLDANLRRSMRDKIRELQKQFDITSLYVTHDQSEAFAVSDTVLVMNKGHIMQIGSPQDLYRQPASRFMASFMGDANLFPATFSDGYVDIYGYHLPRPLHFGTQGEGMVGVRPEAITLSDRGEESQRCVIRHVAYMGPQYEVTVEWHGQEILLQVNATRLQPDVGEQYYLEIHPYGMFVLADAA", "UniProt P36930": "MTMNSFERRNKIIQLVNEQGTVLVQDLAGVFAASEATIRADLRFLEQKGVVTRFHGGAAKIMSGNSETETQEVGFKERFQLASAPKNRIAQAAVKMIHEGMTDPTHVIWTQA", "UniProt P39274": "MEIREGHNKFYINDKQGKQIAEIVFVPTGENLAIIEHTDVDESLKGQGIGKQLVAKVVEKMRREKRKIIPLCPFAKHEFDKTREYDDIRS", "UniProt P42604": "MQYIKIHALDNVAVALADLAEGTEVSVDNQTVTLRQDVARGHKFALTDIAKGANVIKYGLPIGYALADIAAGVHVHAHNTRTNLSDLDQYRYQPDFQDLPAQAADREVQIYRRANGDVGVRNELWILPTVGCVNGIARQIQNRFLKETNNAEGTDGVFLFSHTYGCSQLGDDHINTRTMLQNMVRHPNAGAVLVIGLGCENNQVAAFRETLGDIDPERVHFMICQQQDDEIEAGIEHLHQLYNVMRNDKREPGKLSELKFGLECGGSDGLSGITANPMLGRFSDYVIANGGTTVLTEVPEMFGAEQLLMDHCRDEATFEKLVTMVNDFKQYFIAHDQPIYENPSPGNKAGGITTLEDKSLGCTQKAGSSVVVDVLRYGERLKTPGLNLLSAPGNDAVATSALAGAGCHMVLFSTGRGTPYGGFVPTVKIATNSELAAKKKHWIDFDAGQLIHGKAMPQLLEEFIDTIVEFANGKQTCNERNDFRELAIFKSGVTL", "UniProt P37617": "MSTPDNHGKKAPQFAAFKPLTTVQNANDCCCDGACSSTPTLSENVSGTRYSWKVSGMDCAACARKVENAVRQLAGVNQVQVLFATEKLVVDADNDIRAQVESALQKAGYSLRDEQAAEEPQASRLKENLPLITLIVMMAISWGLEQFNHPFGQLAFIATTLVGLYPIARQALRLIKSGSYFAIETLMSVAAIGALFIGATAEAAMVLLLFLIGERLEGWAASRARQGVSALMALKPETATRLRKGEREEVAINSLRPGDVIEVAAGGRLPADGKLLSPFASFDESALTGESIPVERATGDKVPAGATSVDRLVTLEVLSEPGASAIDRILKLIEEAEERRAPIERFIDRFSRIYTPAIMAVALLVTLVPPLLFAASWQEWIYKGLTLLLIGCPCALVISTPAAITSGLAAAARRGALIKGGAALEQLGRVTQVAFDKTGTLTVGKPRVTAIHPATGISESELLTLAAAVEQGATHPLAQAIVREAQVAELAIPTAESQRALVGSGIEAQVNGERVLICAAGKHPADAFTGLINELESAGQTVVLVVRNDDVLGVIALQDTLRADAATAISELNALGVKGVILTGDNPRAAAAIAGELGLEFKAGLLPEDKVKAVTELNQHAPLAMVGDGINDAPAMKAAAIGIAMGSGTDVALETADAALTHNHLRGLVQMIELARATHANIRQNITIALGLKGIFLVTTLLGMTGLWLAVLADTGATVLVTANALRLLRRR", "UniProt P37627": "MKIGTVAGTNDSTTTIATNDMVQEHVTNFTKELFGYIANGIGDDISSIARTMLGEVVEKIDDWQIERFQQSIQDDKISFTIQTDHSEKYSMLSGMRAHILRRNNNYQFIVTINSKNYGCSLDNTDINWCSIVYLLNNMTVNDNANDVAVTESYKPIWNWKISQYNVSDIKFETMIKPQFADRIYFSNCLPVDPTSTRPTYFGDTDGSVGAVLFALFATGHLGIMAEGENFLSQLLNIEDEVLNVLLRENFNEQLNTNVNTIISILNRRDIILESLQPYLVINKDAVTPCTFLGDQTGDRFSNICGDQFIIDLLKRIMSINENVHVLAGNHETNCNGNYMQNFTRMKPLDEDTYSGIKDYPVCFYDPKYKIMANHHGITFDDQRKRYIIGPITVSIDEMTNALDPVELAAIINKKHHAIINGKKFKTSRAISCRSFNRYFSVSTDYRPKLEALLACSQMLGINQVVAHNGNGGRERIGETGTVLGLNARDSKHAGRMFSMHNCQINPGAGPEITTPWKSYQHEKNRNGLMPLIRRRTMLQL", "UniProt P36645": "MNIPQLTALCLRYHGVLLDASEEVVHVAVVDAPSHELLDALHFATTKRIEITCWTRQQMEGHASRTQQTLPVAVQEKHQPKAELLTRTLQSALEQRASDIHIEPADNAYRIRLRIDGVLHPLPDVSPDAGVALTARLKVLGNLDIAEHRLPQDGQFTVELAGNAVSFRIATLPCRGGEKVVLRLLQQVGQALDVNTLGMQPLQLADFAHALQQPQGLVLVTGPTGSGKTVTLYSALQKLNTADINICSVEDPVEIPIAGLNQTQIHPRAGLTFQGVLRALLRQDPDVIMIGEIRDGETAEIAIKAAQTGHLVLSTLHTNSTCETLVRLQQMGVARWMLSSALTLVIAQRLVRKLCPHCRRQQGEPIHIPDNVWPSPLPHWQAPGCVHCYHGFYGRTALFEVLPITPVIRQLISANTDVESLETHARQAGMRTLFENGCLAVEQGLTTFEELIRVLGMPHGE", "UniProt P39336": "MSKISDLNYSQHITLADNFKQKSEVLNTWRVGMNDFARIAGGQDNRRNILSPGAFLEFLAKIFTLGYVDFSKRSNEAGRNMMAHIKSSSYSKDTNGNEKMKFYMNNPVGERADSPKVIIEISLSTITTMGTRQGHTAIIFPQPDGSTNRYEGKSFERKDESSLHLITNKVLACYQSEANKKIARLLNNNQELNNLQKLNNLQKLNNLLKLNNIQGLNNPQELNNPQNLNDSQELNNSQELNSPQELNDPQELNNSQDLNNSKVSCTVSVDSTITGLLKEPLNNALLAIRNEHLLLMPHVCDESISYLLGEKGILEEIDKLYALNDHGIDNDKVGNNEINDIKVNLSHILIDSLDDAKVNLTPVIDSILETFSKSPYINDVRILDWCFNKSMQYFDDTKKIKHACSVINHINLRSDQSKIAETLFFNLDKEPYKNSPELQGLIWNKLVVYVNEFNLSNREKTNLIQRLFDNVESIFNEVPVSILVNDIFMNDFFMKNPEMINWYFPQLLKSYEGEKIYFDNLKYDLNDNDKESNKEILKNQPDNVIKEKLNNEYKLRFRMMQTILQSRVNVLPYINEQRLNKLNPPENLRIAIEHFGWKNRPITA", "UniProt P39361": "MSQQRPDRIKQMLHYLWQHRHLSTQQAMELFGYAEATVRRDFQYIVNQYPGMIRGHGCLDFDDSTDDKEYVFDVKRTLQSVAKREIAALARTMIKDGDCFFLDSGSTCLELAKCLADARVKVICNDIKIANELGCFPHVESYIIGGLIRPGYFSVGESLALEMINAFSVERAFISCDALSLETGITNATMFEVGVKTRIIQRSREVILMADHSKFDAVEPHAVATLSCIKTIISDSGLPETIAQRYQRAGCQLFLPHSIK", "UniProt P36928": "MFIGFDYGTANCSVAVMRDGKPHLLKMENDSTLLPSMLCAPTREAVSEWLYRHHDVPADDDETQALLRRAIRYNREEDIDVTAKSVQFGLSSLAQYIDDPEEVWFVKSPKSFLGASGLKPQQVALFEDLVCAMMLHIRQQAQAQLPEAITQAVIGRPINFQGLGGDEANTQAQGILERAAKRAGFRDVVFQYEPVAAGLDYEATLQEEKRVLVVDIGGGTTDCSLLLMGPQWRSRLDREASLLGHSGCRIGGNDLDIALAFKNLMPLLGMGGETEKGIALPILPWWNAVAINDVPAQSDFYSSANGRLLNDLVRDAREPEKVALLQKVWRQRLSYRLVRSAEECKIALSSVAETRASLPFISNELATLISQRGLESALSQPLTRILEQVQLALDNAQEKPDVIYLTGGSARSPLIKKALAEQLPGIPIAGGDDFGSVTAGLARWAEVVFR"}, "source": "the supplement of paper PMC12819154", "about": "“High-throughput peptide-centric local stability assay extends protein–ligand identification to membrane proteins, tissues and bacteria” (Nature Structural & Molecular Biology, 2025)", "note": "The other results are listed elsewhere or left out. Most values lie at the level of the controls, where differences are scatter.", "data": [{"compound": "CC1(C)S[C@@H]2[C@H](NC(=O)[C@H](N)c3ccccc3)C(=O)N2[C@H]1C(=O)O [ampicillin]", "experiment": "log2 fold change of tryptic peptide abundance, ligand vs vehicle (limited proteolysis) (log2 ratio); higher = more trypsin-susceptible (destabilized)", "details": "ligand concentration: 10 uM; sample: E. coli crude lysate", "values": [{"target": "UniProt P37692 (peptide sequence: YGLLNDVR, peptide start residue: 114)", "log2 fold change": -0.583}, {"target": "UniProt P42597 (peptide sequence: NAPEPFLR, peptide start residue: 109)", "log2 fold change": -0.232}, {"target": "UniProt P37440 (peptide sequence: EGRIDILVNNAGVCR, peptide start residue: 80)", "log2 fold change": 0.349}, {"target": "UniProt P38051 (peptide sequence: QAQQLGEWLMADDKNQR, peptide start residue: 267)", "log2 fold change": 0.316}, {"target": "UniProt P37008 (peptide sequence: DITPCFGAR, peptide start residue: 14)", "log2 fold change": 0.09}, {"target": "UniProt P37903 (peptide sequence: VISHVEEEAK, peptide start residue: 20)", "log2 fold change": 0.113}, {"target": "UniProt P36683 (peptide sequence: AGFLAAIAK, peptide start residue: 65)", "log2 fold change": 0.374}, {"target": "UniProt P38105 (peptide sequence: GIKPTLIIDAACHPSILK, peptide start residue: 226)", "log2 fold change": 0.445}, {"target": "UniProt P45541 (peptide sequence: ALLPEDER, peptide start residue: 269)", "log2 fold change": -0.117}, {"target": "UniProt P37679 (peptide sequence: NHQLGIYEK, peptide start residue: 3)", "log2 fold change": -0.426}, {"target": "UniProt P38134 (peptide sequence: TIAELNLR, peptide start residue: 103)", "log2 fold change": 0.16}, {"target": "UniProt P41039 (peptide sequence: REAIPGVR, peptide start residue: 51)", "log2 fold change": -0.284}, {"target": "UniProt P37338 (peptide sequence: AHLLSKLEACDASEK, peptide start residue: 108)", "log2 fold change": 0.632}, {"target": "UniProt P37348 (peptide sequence: FIGSDDMTQNR, peptide start residue: 200)", "log2 fold change": 0.207}, {"target": "UniProt P39838 (peptide sequence: KGLQLLINNHLK, peptide start residue: 547)", "log2 fold change": 0.356}, {"target": "UniProt P39342 (peptide sequence: GKEVAVDDGILGGLKDILFGTTGPR, peptide start residue: 439)", "log2 fold change": -1.09}, {"target": "UniProt P37009 (peptide sequence: GHIMQIGSPQDLYR, peptide start residue: 213)", "log2 fold change": 0.0867}, {"target": "UniProt P39343 (peptide sequence: MAAQMLLSK, peptide start residue: 301)", "log2 fold change": -0.191}, {"target": "UniProt P36930 (peptide sequence: FQLASAPK, peptide start residue: 79)", "log2 fold change": 0.0165}, {"target": "UniProt P39274 (peptide sequence: KIIPLCPFAKHEFDK, peptide start residue: 67)", "log2 fold change": 0.563}, {"target": "UniProt P42604 (peptide sequence: AGSSVVVDVLR, peptide start residue: 366)", "log2 fold change": -0.844}, {"target": "UniProt P39161 (peptide sequence: KEWLGDHK, peptide start residue: 195)", "log2 fold change": 0.531}, {"target": "UniProt P38035 (peptide sequence: LIQSSPPR, peptide start residue: 136)", "log2 fold change": 0.464}, {"target": "UniProt P45470 (peptide sequence: KGEASVTIDK, peptide start residue: 47)", "log2 fold change": -0.083}, {"target": "UniProt P37617 (peptide sequence: VSGMDCAACARK, peptide start residue: 54)", "log2 fold change": 1.18}, {"target": "UniProt P37745 (peptide sequence: GLHFQRGEYAQDKLVR, peptide start residue: 60)", "log2 fold change": -0.454}, {"target": "UniProt P39180 (peptide sequence: LQAGAFNYSLNR, peptide start residue: 681)", "log2 fold change": 0.127}, {"target": "UniProt P37627 (peptide sequence: FQQSIQDDKISFTIQTDHSEK, peptide start residue: 68)", "log2 fold change": -0.215}, {"target": "UniProt P45475 (peptide sequence: DECETCCIKYPNGR, peptide start residue: 191)", "log2 fold change": 0.271}, {"target": "UniProt P33913 (peptide sequence: GDGYDRDNLLK, peptide start residue: 395)", "log2 fold change": -0.376}, {"target": "UniProt P39376 (peptide sequence: IFHSQIR, peptide start residue: 73)", "log2 fold change": 0.188}, {"target": "UniProt P37757 (peptide sequence: ELGHSETAFLLHSDDSDVR, peptide start residue: 41)", "log2 fold change": 0.43}, {"target": "UniProt P36645 (peptide sequence: TQQTLPVAVQEK, peptide start residue: 66)", "log2 fold change": -0.546}, {"target": "UniProt P39336 (peptide sequence: QGHTAIIFPQPDGSTNRYEGK, peptide start residue: 133)", "log2 fold change": -0.245}, {"target": "UniProt P39361 (peptide sequence: AGCQLFLPHSIK, peptide start residue: 249)", "log2 fold change": -0.199}, {"target": "UniProt P36928 (peptide sequence: HHDVPADDDETQALLRR, peptide start residue: 53)", "log2 fold change": -0.26}]}]}
